The source of these data is publication PMC2743196.

Chains of the proteins cited; added tags and fusions are not shown.
UniProt P97479: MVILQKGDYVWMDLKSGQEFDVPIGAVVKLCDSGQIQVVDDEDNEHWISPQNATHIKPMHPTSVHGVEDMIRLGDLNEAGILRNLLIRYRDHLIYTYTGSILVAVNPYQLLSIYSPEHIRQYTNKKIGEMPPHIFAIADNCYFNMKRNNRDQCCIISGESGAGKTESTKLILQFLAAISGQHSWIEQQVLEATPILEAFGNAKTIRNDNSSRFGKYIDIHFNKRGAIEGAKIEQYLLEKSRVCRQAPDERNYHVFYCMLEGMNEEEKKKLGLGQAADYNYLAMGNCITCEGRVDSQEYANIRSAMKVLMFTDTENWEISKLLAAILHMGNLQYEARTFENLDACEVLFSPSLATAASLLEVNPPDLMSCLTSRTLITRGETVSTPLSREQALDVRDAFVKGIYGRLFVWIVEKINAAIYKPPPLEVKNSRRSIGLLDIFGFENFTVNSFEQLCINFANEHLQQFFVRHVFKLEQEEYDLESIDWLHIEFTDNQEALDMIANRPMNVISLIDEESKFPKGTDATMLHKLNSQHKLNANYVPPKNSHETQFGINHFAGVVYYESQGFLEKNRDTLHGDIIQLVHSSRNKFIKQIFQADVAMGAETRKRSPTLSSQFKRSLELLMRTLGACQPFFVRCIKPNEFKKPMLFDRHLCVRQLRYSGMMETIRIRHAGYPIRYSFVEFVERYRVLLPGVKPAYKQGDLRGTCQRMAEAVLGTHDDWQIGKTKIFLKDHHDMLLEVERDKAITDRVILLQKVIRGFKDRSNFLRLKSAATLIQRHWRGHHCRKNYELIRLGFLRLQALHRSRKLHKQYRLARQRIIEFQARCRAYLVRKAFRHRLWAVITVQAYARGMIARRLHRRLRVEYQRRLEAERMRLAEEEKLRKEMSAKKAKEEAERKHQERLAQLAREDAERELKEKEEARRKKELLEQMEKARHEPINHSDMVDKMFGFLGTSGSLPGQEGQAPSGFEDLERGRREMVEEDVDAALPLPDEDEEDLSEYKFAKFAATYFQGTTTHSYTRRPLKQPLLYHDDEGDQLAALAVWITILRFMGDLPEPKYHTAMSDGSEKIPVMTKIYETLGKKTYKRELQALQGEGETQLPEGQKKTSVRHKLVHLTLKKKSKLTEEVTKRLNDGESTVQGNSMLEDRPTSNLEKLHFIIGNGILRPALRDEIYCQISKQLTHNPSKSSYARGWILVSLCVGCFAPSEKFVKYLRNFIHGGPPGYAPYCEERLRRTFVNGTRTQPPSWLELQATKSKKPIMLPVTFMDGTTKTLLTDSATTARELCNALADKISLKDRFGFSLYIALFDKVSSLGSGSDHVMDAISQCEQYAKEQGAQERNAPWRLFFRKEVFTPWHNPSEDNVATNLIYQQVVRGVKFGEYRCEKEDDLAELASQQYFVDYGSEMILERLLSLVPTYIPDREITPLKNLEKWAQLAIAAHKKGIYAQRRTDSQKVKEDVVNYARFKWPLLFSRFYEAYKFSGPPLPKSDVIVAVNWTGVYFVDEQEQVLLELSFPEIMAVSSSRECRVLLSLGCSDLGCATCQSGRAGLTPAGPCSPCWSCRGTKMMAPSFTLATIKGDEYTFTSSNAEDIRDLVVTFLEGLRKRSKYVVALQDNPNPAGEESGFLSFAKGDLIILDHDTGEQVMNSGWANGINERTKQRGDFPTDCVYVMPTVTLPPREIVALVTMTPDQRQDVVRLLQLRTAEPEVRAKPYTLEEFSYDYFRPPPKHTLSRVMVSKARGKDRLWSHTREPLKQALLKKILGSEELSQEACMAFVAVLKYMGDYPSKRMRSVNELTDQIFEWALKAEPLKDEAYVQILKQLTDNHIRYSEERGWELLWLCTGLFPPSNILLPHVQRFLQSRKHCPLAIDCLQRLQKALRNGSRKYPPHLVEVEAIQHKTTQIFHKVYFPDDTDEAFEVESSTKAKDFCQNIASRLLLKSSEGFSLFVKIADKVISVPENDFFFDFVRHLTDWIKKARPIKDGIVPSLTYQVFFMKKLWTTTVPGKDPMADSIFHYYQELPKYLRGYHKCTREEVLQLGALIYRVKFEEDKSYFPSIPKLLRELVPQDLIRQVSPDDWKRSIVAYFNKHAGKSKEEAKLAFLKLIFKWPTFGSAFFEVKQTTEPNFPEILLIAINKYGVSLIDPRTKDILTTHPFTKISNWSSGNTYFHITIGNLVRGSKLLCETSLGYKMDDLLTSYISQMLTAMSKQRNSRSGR

The target in test [1] is T1, twinfilin-2 (mouse (endogenous in inner ear sensory epithelia)) (UniProt Q9Z0P5).
T1 sequence: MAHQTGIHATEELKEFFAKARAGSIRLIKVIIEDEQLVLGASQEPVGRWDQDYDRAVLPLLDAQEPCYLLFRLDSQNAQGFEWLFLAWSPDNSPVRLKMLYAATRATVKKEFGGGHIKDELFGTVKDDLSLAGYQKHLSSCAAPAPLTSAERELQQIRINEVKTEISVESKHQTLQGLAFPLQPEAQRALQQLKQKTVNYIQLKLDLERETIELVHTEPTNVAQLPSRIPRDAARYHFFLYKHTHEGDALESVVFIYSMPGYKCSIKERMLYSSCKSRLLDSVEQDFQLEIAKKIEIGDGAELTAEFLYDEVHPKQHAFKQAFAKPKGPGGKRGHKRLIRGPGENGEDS
The test is described as follows: co-IP; lysate of freshly isolated inner ear sensory epithelia of wild type mice at P28; 50 mM Tris-HCl pH 7.0, 150 mM NaCl, 1% Triton-X 100, 2 mM EDTA; precleared, incubated overnight at 4°C with anti-myosinVIIa, anti-twinfilin-1 or anti-twinfilin-2 antibody and protein A-Sepharose; Western blot.

Test [2] concerns the target myosinVIIa (mouse (endogenous in inner ear sensory epithelia)) (UniProt P97479). The test is described as above.

These are yes or no findings as the source states them, for the method shown. In cells and extracts the contact can be indirect. Some results given as binding are weak or reduced against the parent protein; the word gives no strength.

myosinVIIa (from UniProt P97479 1-2215): the binding result in test [1] is reported as “binds”.

B1: twinfilin-2 (protein, UniProt Q9Z0P5 1-349)
chain: MAHQTGIHATEELKEFFAKARAGSIRLIKVIIEDEQLVLGASQEPVGRWDQDYDRAVLPLLDAQEPCYLLFRLDSQNAQGFEWLFLAWSPDNSPVRLKMLYAATRATVKKEFGGGHIKDELFGTVKDDLSLAGYQKHLSSCAAPAPLTSAERELQQIRINEVKTEISVESKHQTLQGLAFPLQPEAQRALQQLKQKTVNYIQLKLDLERETIELVHTEPTNVAQLPSRIPRDAARYHFFLYKHTHEGDALESVVFIYSMPGYKCSIKERMLYSSCKSRLLDSVEQDFQLEIAKKIEIGDGAELTAEFLYDEVHPKQHAFKQAFAKPKGPGGKRGHKRLIRGPGENGEDS
Regarding B1, the binding result in test [2] is given as “binds”.
